{
  "source": "patent US20230276831A1",
  "about": "“Food/Beverage Article” (Kikkoman Corporation, priority 2020, published 2023)",
  "key": {"[1]": {"tested_on": "Lactobacillus rennini DSM 20253", "test": "Antimicrobial action of licoricidin in liquid seasoning (1), lactic acid bacteria A", "type": "cell-based", "parameters": "key: A: The bacterial count decreases to less than 10% of the bacterial count of the control group.; B: The bacterial count decreases to 10% or more and less than 50% of the bacterial count of the control group.; C: The bacterial count decreases to 50% or more and less than 100% of the bacterial count of control group.; D: The bacterial count is the same as the bacterial count of the control group", "settings": "Soy sauce", "description": "Commercially available whole soybean soy sauce (produced by Kikkoman Corporation) was electrodialyzed and then concentrated under reduced pressure to obtain soy sauce at a salt concentration of 0% (w/v) and an alcohol concentration of 0% (v/v). Then, salt and/or alcohol was added to the above-mentioned obtained soy sauce, and the mixture was heat-treated to produce soy sauces at salt concentrations and alcohol concentrations shown in the following Table 5. The pHs of the soy sauces were 4.9 to 5.0. […]\nLicoricidin (produced by ChemFaces) was added to each of the liquid seasonings produced in the above-mentioned (1) to concentrations of 1 ppm, 5 ppm, 10 ppm, 25 ppm, and 50 ppm. Lactic acid bacteria described in the following Table 9 were then added to 10^6 to 10^7 cells/mL and cultured at 30° C. for 7 days. After the culture, the number of lactic acid bacteria was measured using the GAM agar medium “Nissui”. Liquid seasoning to which licoricidin was not added was used as a control group, and the antimicrobial activity was evaluated in comparison with the number of lactic acid bacteria in the control group. The evaluation was performed using the criterion shown below.\n(§1) • A: The bacterial count decreases to less than 10% of the bacterial count of the control group. • B: The bacterial count decreases to 10% or more and less than 50% of the bacterial count of the control group. • C: The bacterial count decreases to 50% or more and less than 100% of the bacterial count of control group. • D: The bacterial count is the same as the bacterial count of the control group."}, "[2]": {"tested_on": "Lactobacillus rennini (DSM 20253)", "test": "Antimicrobial action of licoricidin in liquid dressing, lightly-pickled vegetables and cooking vinegar (Test Example 9)", "type": "cell-based", "excerpt": "Specifically, Koikuchi soy sauce (produced by Kikkoman Corporation), table vinegar, mirin, granulated sugar, kelp stock, and water were blended in amounts shown in the following Table 24, and the resulting mixture was heated to produce liquid dressing. The salt concentration of the obtained liquid dressing was 2.6% (w/v), the alcohol concentration was 0.8% (v/v), the pH was 4.2.\nSpecifically, Usukuchi soy sauce (produced by Kikkoman Corporation), table vinegar, corn syrup, isomerized sugar, salt, granulated sugar, sodium glutamate (MSG), lemon fruit juice, kelp stock, and water were blended in amounts shown in the following Table 25, and the mixture was heated to produce seasoning liquid for lightly-pickled vegetables. Chinese cabbages were fully soaked therein to produce lightly-pickled vegetables. The salt concentration of the obtained seasoning liquid for lightly-pickled vegetables was 3.1% (w/v), the alcohol concentration was 0.01% (v/v), and the pH was 4.4.\nSpecifically, table vinegar, salt, granulated sugar, lemon fruit juice, sodium glutamate (MSG), and water in amounts shown in following Table 26 were blended, and the mixture was heated to produce cooking vinegar. The salt concentration of the obtained cooking vinegar was 1.5% (w/v), the alcohol concentration was 0% (v/v), and the pH was 3.8.\nLicoricidin (produced by ChemFaces) was added to each of the above-mentioned produced liquid dressing, lightly-pickled vegetables, and cooking vinegar to concentrations of 1 ppm, 5 ppm, 10 ppm, 25 ppm, and 50 ppm. Lactic acid bacteria (Lactobacillus rennini (DSM 20253)) were then added to 10^6 to 10^7 cells/mL. The bacteria were cultured in the liquid dressing and the lightly-pickled vegetables at 30° C. for 7 days, and the bacteria were cultured in the cooking vinegar at 30° C. for 3 days. After the culture, the number of lactic acid bacteria was measured using the GAM agar medium “Nissui”. The liquid dressing, the lightly-pickled vegetables, and the cooking vinegar to which licoricidin was not added were used as respective control groups, and the antimicrobial activity was evaluated in comparison with the number of lactic acid bacteria in the control group. The evaluation was performed using the same criterion as in Test Example 4.\nas §1"}},
  "note": "This continues a long series; more values of the same kind are listed elsewhere.",
  "data": [
    {"smiles": "COc1c(CC=C(C)C)c(O)cc2c1C[C@H](c1ccc(O)c(CC=C(C)C)c1O)CO2", "note": "[Licoricidin, 4-[(R)-7-hydroxy-5-methoxy-6-(3-methyl-2-butenyl)chroman-3-yl]-2-(3-methyl-2-butenyl)-1,3-benzenediol]", "values": [
      {"measurement": "Antimicrobial activity", "setting": "[1]; salt 4% (w/v), alcohol 10% (v/v), licoricidin 1 ppm", "result": "A (The bacterial count decreases to less than 10% of the bacterial count of the control group.)"},
      {"measurement": "Antimicrobial activity", "setting": "[1]; salt 4% (w/v), alcohol 10% (v/v), licoricidin 5 ppm", "result": "A (The bacterial count decreases to less than 10% of the bacterial count of the control group.)"},
      {"measurement": "Antimicrobial activity", "setting": "[1]; salt 4% (w/v), alcohol 10% (v/v), licoricidin 10 ppm", "result": "A (The bacterial count decreases to less than 10% of the bacterial count of the control group.)"},
      {"measurement": "Antimicrobial activity", "setting": "[1]; salt 4% (w/v), alcohol 10% (v/v), licoricidin 25 ppm", "result": "A (The bacterial count decreases to less than 10% of the bacterial count of the control group.)"},
      {"measurement": "Antimicrobial activity", "setting": "[1]; salt 4% (w/v), alcohol 10% (v/v), licoricidin 50 ppm", "result": "A (The bacterial count decreases to less than 10% of the bacterial count of the control group.)"},
      {"measurement": "Antimicrobial activity", "setting": "[1]; salt 8% (w/v), alcohol 0% (v/v), licoricidin 1 ppm", "result": "C (The bacterial count decreases to 50% or more and less than 100% of the bacterial count of control group.)"},
      {"measurement": "Antimicrobial activity", "setting": "[1]; salt 8% (w/v), alcohol 0% (v/v), licoricidin 5 ppm", "result": "A (The bacterial count decreases to less than 10% of the bacterial count of the control group.)"},
      {"measurement": "Antimicrobial activity", "setting": "[1]; salt 8% (w/v), alcohol 0% (v/v), licoricidin 10 ppm", "result": "A (The bacterial count decreases to less than 10% of the bacterial count of the control group.)"},
      {"measurement": "Antimicrobial activity", "setting": "[1]; salt 8% (w/v), alcohol 0% (v/v), licoricidin 25 ppm", "result": "A (The bacterial count decreases to less than 10% of the bacterial count of the control group.)"},
      {"measurement": "Antimicrobial activity", "setting": "[1]; salt 8% (w/v), alcohol 0% (v/v), licoricidin 50 ppm", "result": "A (The bacterial count decreases to less than 10% of the bacterial count of the control group.)"},
      {"measurement": "Antimicrobial activity", "setting": "[1]; salt 8% (w/v), alcohol 5% (v/v), licoricidin 1 ppm", "result": "B (The bacterial count decreases to 10% or more and less than 50% of the bacterial count of the control group.)"},
      {"measurement": "Antimicrobial activity", "setting": "[1]; salt 8% (w/v), alcohol 5% (v/v), licoricidin 5 ppm", "result": "A (The bacterial count decreases to less than 10% of the bacterial count of the control group.)"},
      {"measurement": "Antimicrobial activity", "setting": "[1]; salt 8% (w/v), alcohol 5% (v/v), licoricidin 10 ppm", "result": "A (The bacterial count decreases to less than 10% of the bacterial count of the control group.)"},
      {"measurement": "Antimicrobial activity", "setting": "[1]; salt 8% (w/v), alcohol 5% (v/v), licoricidin 25 ppm", "result": "A (The bacterial count decreases to less than 10% of the bacterial count of the control group.)"},
      {"measurement": "Antimicrobial activity", "setting": "[1]; salt 8% (w/v), alcohol 5% (v/v), licoricidin 50 ppm", "result": "A (The bacterial count decreases to less than 10% of the bacterial count of the control group.)"},
      {"measurement": "Antimicrobial activity", "setting": "[1]; salt 12% (w/v), alcohol 0% (v/v), licoricidin 1 ppm", "result": "D"},
      {"measurement": "Antimicrobial activity", "setting": "[1]; salt 12% (w/v), alcohol 0% (v/v), licoricidin 5 ppm", "result": "A (The bacterial count decreases to less than 10% of the bacterial count of the control group.)"},
      {"measurement": "Antimicrobial activity", "setting": "[1]; salt 12% (w/v), alcohol 0% (v/v), licoricidin 10 ppm", "result": "A (The bacterial count decreases to less than 10% of the bacterial count of the control group.)"},
      {"measurement": "Antimicrobial activity", "setting": "[1]; salt 12% (w/v), alcohol 0% (v/v), licoricidin 25 ppm", "result": "A (The bacterial count decreases to less than 10% of the bacterial count of the control group.)"},
      {"measurement": "Antimicrobial activity", "setting": "[1]; salt 12% (w/v), alcohol 0% (v/v), licoricidin 50 ppm", "result": "A (The bacterial count decreases to less than 10% of the bacterial count of the control group.)"},
      {"measurement": "Antimicrobial activity", "setting": "[1]; salt 12% (w/v), alcohol 5% (v/v), licoricidin 1 ppm", "result": "A (The bacterial count decreases to less than 10% of the bacterial count of the control group.)"},
      {"measurement": "Antimicrobial activity", "setting": "[1]; salt 12% (w/v), alcohol 5% (v/v), licoricidin 5 ppm", "result": "A (The bacterial count decreases to less than 10% of the bacterial count of the control group.)"},
      {"measurement": "Antimicrobial activity", "setting": "[1]; salt 12% (w/v), alcohol 5% (v/v), licoricidin 10 ppm", "result": "A (The bacterial count decreases to less than 10% of the bacterial count of the control group.)"},
      {"measurement": "Antimicrobial activity", "setting": "[1]; salt 12% (w/v), alcohol 5% (v/v), licoricidin 25 ppm", "result": "A (The bacterial count decreases to less than 10% of the bacterial count of the control group.)"},
      {"measurement": "Antimicrobial activity", "setting": "[1]; salt 12% (w/v), alcohol 5% (v/v), licoricidin 50 ppm", "result": "A (The bacterial count decreases to less than 10% of the bacterial count of the control group.)"},
      {"measurement": "Antimicrobial activity", "setting": "[2]; Cooking vinegar (salt 1.5% (w/v), alcohol 0% (v/v), pH 3.8), 30° C. 3 days, licoricidin 1 ppm", "result": "A (The bacterial count decreases to less than 10% of the bacterial count of the control group.)"},
      {"measurement": "Antimicrobial activity", "setting": "[2]; Cooking vinegar (salt 1.5% (w/v), alcohol 0% (v/v), pH 3.8), 30° C. 3 days, licoricidin 5 ppm", "result": "A (The bacterial count decreases to less than 10% of the bacterial count of the control group.)"},
      {"measurement": "Antimicrobial activity", "setting": "[2]; Cooking vinegar (salt 1.5% (w/v), alcohol 0% (v/v), pH 3.8), 30° C. 3 days, licoricidin 10 ppm", "result": "A (The bacterial count decreases to less than 10% of the bacterial count of the control group.)"},
      {"measurement": "Antimicrobial activity", "setting": "[2]; Cooking vinegar (salt 1.5% (w/v), alcohol 0% (v/v), pH 3.8), 30° C. 3 days, licoricidin 25 ppm", "result": "A (The bacterial count decreases to less than 10% of the bacterial count of the control group.)"},
      {"measurement": "Antimicrobial activity", "setting": "[2]; Cooking vinegar (salt 1.5% (w/v), alcohol 0% (v/v), pH 3.8), 30° C. 3 days, licoricidin 50 ppm", "result": "A (The bacterial count decreases to less than 10% of the bacterial count of the control group.)"},
      {"measurement": "Antimicrobial activity", "setting": "[2]; Lightly-pickled vegetables (seasoning liquid salt 3.1% (w/v), alcohol 0.01% (v/v), pH 4.4), 30° C. 7 days, licoricidin 1 ppm", "result": "B (The bacterial count decreases to 10% or more and less than 50% of the bacterial count of the control group.)"},
      {"measurement": "Antimicrobial activity", "setting": "[2]; Lightly-pickled vegetables (seasoning liquid salt 3.1% (w/v), alcohol 0.01% (v/v), pH 4.4), 30° C. 7 days, licoricidin 5 ppm", "result": "C (The bacterial count decreases to 50% or more and less than 100% of the bacterial count of control group.)"},
      {"measurement": "Antimicrobial activity", "setting": "[2]; Lightly-pickled vegetables (seasoning liquid salt 3.1% (w/v), alcohol 0.01% (v/v), pH 4.4), 30° C. 7 days, licoricidin 10 ppm", "result": "A (The bacterial count decreases to less than 10% of the bacterial count of the control group.)"},
      {"measurement": "Antimicrobial activity", "setting": "[2]; Lightly-pickled vegetables (seasoning liquid salt 3.1% (w/v), alcohol 0.01% (v/v), pH 4.4), 30° C. 7 days, licoricidin 25 ppm", "result": "A (The bacterial count decreases to less than 10% of the bacterial count of the control group.)"},
      {"measurement": "Antimicrobial activity", "setting": "[2]; Lightly-pickled vegetables (seasoning liquid salt 3.1% (w/v), alcohol 0.01% (v/v), pH 4.4), 30° C. 7 days, licoricidin 50 ppm", "result": "A (The bacterial count decreases to less than 10% of the bacterial count of the control group.)"},
      {"measurement": "Antimicrobial activity", "setting": "[2]; Liquid dressing (salt 2.6% (w/v), alcohol 0.8% (v/v), pH 4.2), 30° C. 7 days, licoricidin 1 ppm", "result": "A (The bacterial count decreases to less than 10% of the bacterial count of the control group.)"},
      {"measurement": "Antimicrobial activity", "setting": "[2]; Liquid dressing (salt 2.6% (w/v), alcohol 0.8% (v/v), pH 4.2), 30° C. 7 days, licoricidin 5 ppm", "result": "A (The bacterial count decreases to less than 10% of the bacterial count of the control group.)"},
      {"measurement": "Antimicrobial activity", "setting": "[2]; Liquid dressing (salt 2.6% (w/v), alcohol 0.8% (v/v), pH 4.2), 30° C. 7 days, licoricidin 10 ppm", "result": "A (The bacterial count decreases to less than 10% of the bacterial count of the control group.)"},
      {"measurement": "Antimicrobial activity", "setting": "[2]; Liquid dressing (salt 2.6% (w/v), alcohol 0.8% (v/v), pH 4.2), 30° C. 7 days, licoricidin 25 ppm", "result": "A (The bacterial count decreases to less than 10% of the bacterial count of the control group.)"},
      {"measurement": "Antimicrobial activity", "setting": "[2]; Liquid dressing (salt 2.6% (w/v), alcohol 0.8% (v/v), pH 4.2), 30° C. 7 days, licoricidin 50 ppm", "result": "A (The bacterial count decreases to less than 10% of the bacterial count of the control group.)"}
    ]}
  ]
}
